In paper PMC7359039, “Peptides based on the reactive center loop of Manduca sexta serpin-3 block its protease inhibitory function” (Scientific Reports, 2020):

Assays:
[1] = molecular target: Manduca sexta serpin-3∆N (Manduca sexta); test: SDS-stable covalent complex by reducing SDS-PAGE and immunoblot; serpin-3ΔN (135 ng) incubated with pre-dried peptide (25 nmol) or dried TFE at 37 °C for 2 h, then PAP3 (108 ng) with 18 µg BSA added, 10 min at room temperature; blot with serpin-3 antiserum; both purified
[2] = molecular target: Manduca sexta serpin-3∆N (Manduca sexta); test: circular dichroism (spectrum and thermal stability) after gel permeation chromatography; serpin-3ΔN (150 µg) and Ac-SVAFS-COO^− (25 µmol) incubated at 37 °C for 2 h; Superdex 200 10/300 GL in 20 mM Tris-HCl, 150 mM NaCl, pH 8.0 to remove free peptide; CD 190-260 nm in 10 mM Tris, 5 mM NaCl, pH 8.0, 20 to 90 °C; both purified

binding [1]: binds
B1: Ac-SVAFS-NH2 (peptide)
peptide: SVAFS
modifications: N-terminal acetyl; C-terminal amide

binding [1]: binds
B2: Ac-SVAFSAT-NH2 (peptide)
peptide: SVAFSAT
modifications: N-terminal acetyl; C-terminal amide

binding [2]: binds
B3: Ac-SVAFS-COO^− (peptide)
peptide: SVAFS
modifications: N-terminal acetyl; free carboxyl end

binding [1]: binds
B4: Ac-SVAFSATQ-NH2 (peptide)
peptide: SVAFSATQ
modifications: N-terminal acetyl; C-terminal amide

No constants are given. Whether binding was seen depends on the method and setting. Binding calls can cover weak binding; strength is not graded here. Each block holds one binder with its values, some of them ahead of it.
